Results are given in words; binding and its absence hold for the method and conditions named. Binding seen in cells or lysates may run through a third protein. Some entries that bind do so weakly or less than the wild type. For some assays here: Where a sequence is shown, tags or fusion partners need not be part of it. Values belong to the molecule of their own block, whether it stands above or below them.
Legend:
[1] = molecular target: T1, BIN1 isoform 1, endogenous in human brain (human (endogenous in brain tissue)) (UniProt O00499); assay: co-IP; human brain lysates from AD (n = 3) and control (n = 3) subjects; immunoprecipitated with anti-CLU, anti-BIN1 or anti-Tau antibody on protein G dynabeads; Western blot
T1 sequence: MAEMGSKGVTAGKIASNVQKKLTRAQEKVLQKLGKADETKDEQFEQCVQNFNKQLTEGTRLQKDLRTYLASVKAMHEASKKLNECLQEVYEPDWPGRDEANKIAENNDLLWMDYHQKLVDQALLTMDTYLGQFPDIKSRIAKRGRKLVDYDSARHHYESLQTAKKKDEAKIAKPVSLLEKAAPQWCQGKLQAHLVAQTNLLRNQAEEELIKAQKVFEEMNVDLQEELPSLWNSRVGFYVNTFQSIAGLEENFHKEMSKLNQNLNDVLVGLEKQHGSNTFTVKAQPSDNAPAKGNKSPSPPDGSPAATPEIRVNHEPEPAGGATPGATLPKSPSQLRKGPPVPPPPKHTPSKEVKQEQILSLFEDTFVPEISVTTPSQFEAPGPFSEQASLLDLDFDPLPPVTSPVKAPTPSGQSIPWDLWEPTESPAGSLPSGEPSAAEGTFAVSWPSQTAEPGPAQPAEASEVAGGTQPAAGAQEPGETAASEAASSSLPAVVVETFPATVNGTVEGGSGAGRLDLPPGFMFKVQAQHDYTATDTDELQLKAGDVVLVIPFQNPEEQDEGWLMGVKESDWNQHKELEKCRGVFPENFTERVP

Protein sequences, listed by entry. Tags and fused reporters are not part of them. Lines headed by an entry give the natural chain unless they say otherwise; changes in a name come on top. Chains listed by the source or under a name are the forms on record and can include a tag or linker. Residues count along the entry.
UniProt P10909: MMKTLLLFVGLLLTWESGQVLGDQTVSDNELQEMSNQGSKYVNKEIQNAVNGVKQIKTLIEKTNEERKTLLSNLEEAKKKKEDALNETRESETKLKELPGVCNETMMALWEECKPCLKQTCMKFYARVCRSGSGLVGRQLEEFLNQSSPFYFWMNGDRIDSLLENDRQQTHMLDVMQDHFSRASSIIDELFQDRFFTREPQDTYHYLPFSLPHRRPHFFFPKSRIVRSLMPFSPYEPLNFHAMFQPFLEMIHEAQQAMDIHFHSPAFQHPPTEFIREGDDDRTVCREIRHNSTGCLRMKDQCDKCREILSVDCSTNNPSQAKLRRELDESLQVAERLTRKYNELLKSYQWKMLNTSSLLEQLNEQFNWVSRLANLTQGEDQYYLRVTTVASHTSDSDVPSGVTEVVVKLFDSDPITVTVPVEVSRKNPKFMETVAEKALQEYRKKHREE
clusterin, endogenous in human brain (human (endogenous in brain tissue)): residues 23-449 of P10909
intracellular human clusterin, Flag-tagged (iCLU): residues 34-449 of P10909

[2] = molecular target: T2, human BIN1 isoform 1, myc-tagged (human) (UniProt O00499); assay: co-IP; iTau-HEK cells co-transfected with iCLU and BIN1.1, PBS- or doxycycline-treated; lysates immunoprecipitated with anti-Tau HT7, anti-BIN1 99D or anti-CLU C18 antibody; Western blot
T2 sequence: T1 sequence

[3] = molecular target: T2, human BIN1 isoform 1, myc-tagged (human); assay: co-IP; iTau-HEK cells co-transfected with iCLU and each of the ten myc-tagged BIN1 isoforms; immunoprecipitating antibodies not given
[4] = molecular target: intracellular human clusterin, Flag-tagged (iCLU) (human) (UniProt P10909); assay: co-IP; iTau-HEK cells co-transfected with iCLU and BIN1.1, PBS- or doxycycline-treated; lysates immunoprecipitated with anti-Tau HT7, anti-BIN1 99D or anti-CLU C18 antibody; Western blot
[5] = molecular target: clusterin, endogenous in human brain (human (endogenous in brain tissue)) (UniProt P10909); assay: co-IP; human brain lysates from AD (n = 3) and control (n = 3) subjects; immunoprecipitated with anti-CLU, anti-BIN1 or anti-Tau antibody on protein G dynabeads; Western blot

binding [1]: binds
Molecule: clusterin, endogenous in human brain (from UniProt P10909-1 23-449)

binding [2]: binds
binding [3]: binds
Molecule: intracellular human clusterin, Flag-tagged (iCLU) (from UniProt P10909-2 86-501) (domain or fragment)

binding [4]: binds
B1: human BIN1 isoform 1, myc-tagged (protein, UniProt O00499 1-593)
chain: T1 sequence

binding [5]: binds
B2: BIN1 isoform 1, endogenous in human brain (protein, UniProt O00499 1-593)
chain: T1 sequence

From publication PMC4106906
